Test results published in PMC8479171.
No constants are given. Whether binding was seen depends on the method and setting. Binding seen in cells or lysates may run through a third protein. A yes stands for co-enrichment or nearness to the bait. Other partners may have been found. For some assays here: Tags and fused reporters may be left off the sequences shown.

T1: Gimap5 (GTPase of immunity-associated protein 5), over-expressed from pcDNA3.1-Gimap5/3×Flag-EGFP (human) (UniProt Q96F15)
T1 sequence: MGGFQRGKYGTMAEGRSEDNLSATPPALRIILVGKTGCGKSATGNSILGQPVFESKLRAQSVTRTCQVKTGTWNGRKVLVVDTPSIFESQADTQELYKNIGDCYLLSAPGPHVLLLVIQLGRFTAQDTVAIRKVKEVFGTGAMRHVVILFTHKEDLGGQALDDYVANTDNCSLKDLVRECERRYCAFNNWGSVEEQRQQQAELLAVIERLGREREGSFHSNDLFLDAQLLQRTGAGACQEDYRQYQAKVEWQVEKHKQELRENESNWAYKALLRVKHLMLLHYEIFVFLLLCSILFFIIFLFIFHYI


Legend:
[1] = biological target: T1, Gimap5 (GTPase of immunity-associated protein 5), over-expressed from pcDNA3.1-Gimap5/3×Flag-EGFP (human); assay: affinity purification with mass spectrometry; Co-IP with rabbit anti-Gimap5 (10 μg) and Protein A-Agarose from lysates of Beas-2b and PC9 cells with Gimap5 overexpression (50mM Tris HCl pH7.4, 150mM NaCl, 1mM EDTA, 1% Triton X-100); tandem mass spectrometry
[2] = biological target: M6PR (mannose 6-phosphate receptor) (human (endogenous in Beas-2b and PC9)); assay: affinity purification with mass spectrometry; secondary immunoprecipitation: rabbit-anti M6PR (10 μg) added to the immunoprecipitate of Gimap5 from Beas-2b and PC9 cells; Protein A-Agarose; tandem mass spectrometry

binding [1]	binding [2]	Molecule
binds		M6PR (mannose 6-phosphate receptor) (human (endogenous in Beas-2b and PC9))
	binds	breast cancer anti-estrogen resistance protein 1 (protein, UniProt P56945 1-870) MNHLNVLAKALYDNVAESPDELSFRKGDIMTVLEQDTQGLDGWWLCSLHGRQGIVPGNRLKILVGMYDKKPAGPGPGPPATPAQPQPGLHAPAPPASQYTPMLPNTYQPQPDSVYLVPTPSKAQQGLYQVPGPSPQFQSPPAKQTSTFSKQTPHHPFPSPATDLYQVPPGPGGPAQDIYQVPPSAGMGHDIYQVPPSMDTRSWEGTKPPAKVVVPTRVGQGYVYEAAQPEQDEYDIPRHLLAPGPQDIYDVPPVRGLLPSQYGQEVYDTPPMAVKGPNGRDPLLEVYDVPPSVEKGLPPSNHHAVYDVPPSVSKDVPDGPLLREETYDVPPAFAKAKPFDPARTPLVLAAPPPDSPPAEDVYDVPPPAPDLYDVPPGLRRPGPGTLYDVPRERVLPPEVADGGVVDSGVYAVPPPAEREAPAEGKRLSASSTGSTRSSQSASSLEVAGPGREPLELEVAVEALARLQQGVSATVAHLLDLAGSAGATGSWRSPSEPQEPLVQDLQAAVAAVQSAVHELLEFARSAVGNAAHTSDRALHAKLSRQLQKMEDVHQTLVAHGQALDAGRGGSGATLEDLDRLVACSRAVPEDAKQLASFLHGNASLLFRRTKATAPGPEGGGTLHPNPTDKTSSIQSRPLPSPPKFTSQDSPDGQYENSEGGWMEDYDYVHLQGKEEFEKTQKELLEKGSITRQGKSQLELQQLKQFERLEQEVSRPIDHDLANWTPAQPLAPGRTGGLGPSDRQLLLFYLEQCEANLTTLTNAVDAFFTAVATNQPPKIFVAHSKFVILSAHKLVFIGDTLSRQAKAADVRSQVTHYSNLLCDLLRGIVATTKAAALQYPSPSAAQDMVERVKELGHSTQQFRRVLGQLAAA
